Measurements reported in PubChem BioAssay AID1347076 (National Center for Advancing Translational Sciences (NCATS), 2019).
“And” between values parts separate entries of the source, which are not always exact repeats. Equal entries are not always repeated. In all, about 400,000 compounds went through this assay and about 13,000 (3.2%) were called active. Inconclusive means that the source gave no clear call. Such entries were picked first, then a sample of the others. Calls come from the whole dose curve; as a rule, active = well fitted cell-killing curve with a large enough effect; inconclusive = small, poorly fitted or top-dose-only effect, or effect the other way; inactive = flat fitted curve, though single readings scatter. Potencies beside an inconclusive call are fits to weak or partial responses and may not hold up.
% is set by controls: 0 for no effect and ±100 for the full control effect; potency is the fitted concentration of half-maximal effect.

Assay: qHTS assay for MDR1-selective chemotherapeutics: Primary screen using the drug-selected MDR subline cells KB-V1; note: nearly all actives have a fitted effect of over 60% in size
Conditions: KB-V1 MDR cells viability, CellTiter-Glo, 72 h; activity change, negative = cytotoxicity: at 46.1 µM (top of the series)
In short: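 Cytotoxicity toward P-gp-expressing KB-V1 cells was determined as loss of CellTiter-Glo luminescence after 72 h at 37 degrees C. Compounds were tested in quantitative HTS format across a concentration range, with curves fitted to normalized data.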
In the case of `CC(=O)N1CCN(S(=O)(=O)c2cccc(C(=O)NNC(=O)c3ccc(Br)cc3)c2)CC1`, the Potency is reported as inconclusive: 25.9 µM [rising, single point]. In the case of `CCN(CC)C1Oc2cc3c(cc2C(c2cccc(OC)c2O)C1C)OCO3` (stereo unspecified), the Potency is reported as inconclusive: 3.26 µM [cytotoxic, full curve, poor fit]. With `O=C(O)c1ccc2c(c1Nc1ccccc1)C(=O)c1ccccc1C2=O` the “activity change, negative = cytotoxicity” value was inactive: -9.82%. In the case of `O=C(O)c1ccc2c(c1)C(=O)N(CCCCCCCN1C(=O)c3ccc(C(=O)O)cc3C1=O)C2=O`, the Potency is reported as inconclusive: 11.6 µM [rising, partial curve, poor fit]. With `Clc1ccc2nc(CSc3nnc(-c4c[nH]c5ccccc45)o3)cn2c1` the “activity change, negative = cytotoxicity” value was inactive: -6.84%. With `COCCNc1c(-c2ccc(OC)cc2)nc2ccc(Cl)cn12` the Potency was inconclusive: 5.8 µM [cytotoxic, partial curve]. For `Cc1ccc(NC(=O)CN(C)CC(=O)Nc2ccccc2Oc2ccccc2)cc1`, the Potency was inconclusive: 11.6 µM [cytotoxic, partial curve]. In the case of `COc1cc(NC(=O)C2Cc3ccccc3N2C(=O)c2ccccc2)cc(OC)c1` (stereo unspecified), the “activity change, negative = cytotoxicity” value is reported as inactive: -10.1%. For `Cc1ccc(-c2nc(CS(=O)CC(=O)NCCc3ccc(Cl)cc3)c(C)o2)cc1` (stereo unspecified), the “activity change, negative = cytotoxicity” value was inactive: 3.98%. In the case of `CC(C)c1ccc(C(C)NCCS(=O)(=O)c2ccc(Cl)cc2)cc1` (stereo unspecified), the Potency is reported as inconclusive: 6.51 µM [cytotoxic, partial curve]. For `COc1ccc(Nc2nc(NN)nc(Nc3ccc(OC)cc3)n2)cc1`, the “activity change, negative = cytotoxicity” value was inactive: -26.9%. With `Cc1ccc2nc3c(c(Nc4cccc(O)c4)c2c1)CCC3` the Potency was inconclusive: 20.6 µM [cytotoxic, single point]. With `COc1ccc(S(=O)(=O)Nc2cccc(C(C)=O)c2)cc1Br` the Potency was inconclusive: 29.1 µM [cytotoxic, single point]. In the case of `Cc1ccc(CNC(=O)CC2Sc3ccccc3NC2=O)cc1` (stereo unspecified), the activity change, negative = cytotoxicity is reported as inconclusive: -3.35%. In the case of `CCN(C(=O)CCc1nc(-c2ccc(OC)cc2)no1)c1cc(OC)ccc1OC`, the Potency is reported as active: 16.4 µM. In the case of `CCCCN(C)C(=O)c1nc2ccccn2c1CNCCCn1ncc2ccccc21`, the “activity change, negative = cytotoxicity” value is reported as inactive: -24.3%. In the case of `COC(=O)c1cc2sccc2n1CC(=O)Nc1cc(Cl)ccc1OC`, the Potency is reported as inconclusive: 16.4 µM [cytotoxic, single point]. For `CC(C)(C)c1ccc(-c2nnc(N)s2)cc1`, the Potency was inconclusive: 29.1 µM [rising, single point]. For `COc1ccc(C(=O)Nc2nnc(Cc3ccc(OC)c(OC)c3)s2)c(OC)c1`, the Potency was inconclusive: 23.1 µM [cytotoxic, partial curve, poor fit]. In the case of `CCCCNC(=O)O[C@@H]1C[C@@H]2CCN3C(=O)CCC[C@H]([C@H]1CC)[C@H]23`, the Potency is reported as active: 20.6 µM and inconclusive: 11.6 µM [cytotoxic, single point]. With `Cc1ccc(NS(=O)(=O)c2cc(C(=O)O)ccc2Cl)cc1` the Potency was inconclusive: 29.1 µM [cytotoxic, single point]. In the case of `CCc1ccc(S(=O)(=O)c2cn(CC)c3cc(N4CCCCC4)c(F)cc3c2=O)cc1`, the “activity change, negative = cytotoxicity” value is reported as inactive: 1.57%. For `Cc1ccccc1CN1[C@@H](CC2CCCCC2)COCCS1(=O)=O`, the Potency was inconclusive: 18.4 µM [cytotoxic, single point]. For `COc1cc(NCC2COc3c(ccc(OC)c3OC)C2=O)c([N+](=O)[O-])cc1OC` (stereo unspecified), the Potency was inconclusive: 8.2 µM [cytotoxic, partial curve]. In the case of `O=C1CSC(c2ccc3c(c2)OCO3)N1c1ccc(Oc2ccccc2)cc1` (stereo unspecified), the Potency is reported as inconclusive: 22.4 µM [cytotoxic, single point]. For `COc1ccc(/C(C)=N/Nc2ncc(Cl)cc2Cl)c(O)c1`, the Potency was inconclusive: 3.26 µM [cytotoxic, partial curve, poor fit]. For `Cc1c(C(=O)N2CCc3ccccc3C2)oc2ccc(Br)cc12`, the “activity change, negative = cytotoxicity” value was inactive: -0.018%. In the case of `CC(C)(C)N1CSC(=S)N(Cc2ccccc2)C1`, the Potency is reported as inconclusive: 29.1 µM [cytotoxic, single point]. With `Cc1ccc(CNC(=O)CN2CCN(Cc3ccc(F)cc3Cl)C2=O)cc1` the “activity change, negative = cytotoxicity” value was inactive: 19.4%. For `O=c1/c(=C\c2ccc(O)cc2)sc2n1C(c1ccccc1)C(c1ccccc1)=NN=2` (stereo unspecified), the Potency was inconclusive: 29.1 µM [cytotoxic, single point]. In the case of `O=c1[nH]c(-c2ccc(O)cc2)nc2scc(-c3cccs3)c12`, the “activity change, negative = cytotoxicity” value is reported as inactive: -5.81%. In the case of `COc1cc(OC)c(NC(=O)C2CCN(S(=O)(=O)c3ccc4c(c3)oc(=O)n4C)CC2)cc1Cl`, the Potency is reported as inconclusive: 29.1 µM [rising, single point]. For `O=C(COc1ccc(Oc2ccccc2)cc1)NCc1cn2ccccc2n1`, the Potency was inconclusive: 8.2 µM [cytotoxic, partial curve, poor fit]. With `Cc1ccc(-c2cc(C(=O)Nc3ccccc3C)c3ccccc3n2)o1` the “activity change, negative = cytotoxicity” value was inactive: -11.1%. In the case of `CC1CCCC(C)N1C(=O)COC(=O)c1ccc(Br)o1` (stereo unspecified), the “activity change, negative = cytotoxicity” value is reported as inactive: 3.45%. For `COc1cccc(NS(=O)(=O)c2ccc(-n3cccn3)cc2)c1`, the “activity change, negative = cytotoxicity” value was inactive: 5.41%. With `CCC(=O)NC(C)c1cc(Cl)c2ccccc2c1O` (stereo unspecified) the Potency was inconclusive: 20.6 µM [rising, partial curve, poor fit]. With `O=c1cc(CSc2nc3cc(Cl)ccc3o2)nc2sccn12` the Potency was inconclusive: 20.6 µM [cytotoxic, single point]. In the case of `COc1ccc(S(=O)(=O)N(CCCN2CCOCC2)Cc2ccc(OC)c(OC)c2)cc1`, the Potency is reported as inconclusive: 8.2 µM [cytotoxic, partial curve]. For `CC1(C(=O)Nc2ccc3c(c2)OCO3)CCN1Cc1cccc2c1OCO2` (stereo unspecified), the Potency was inconclusive: 18.4 µM [cytotoxic, partial curve]. In the case of `O=C(OC(C(=O)Nc1cc(Cl)cc(Cl)c1)c1ccccc1)C1=COCCO1` (stereo unspecified), the Potency is reported as inconclusive: 13 µM [cytotoxic, partial curve, poor fit]. In the case of `Cc1cnc(NC(=O)c2ccccn2)s1`, the activity change, negative = cytotoxicity is reported as inconclusive: -50.6%. With `O=C(CNC(=O)c1ccc(F)cc1)OCc1cc(=O)n2nc(C3CCCCC3)sc2n1` the Potency was inconclusive: 5.8 µM [cytotoxic, full curve, poor fit]. With `COc1ccc(NC(=O)C2C3C=CC(O3)C2C(=O)NCc2cccnc2)cc1` (stereo unspecified) the Potency was inconclusive: 29.1 µM [rising, single point]. In the case of `CCc1ccc(NC(=O)C(C)OC(=O)c2ccc(NS(=O)(=O)c3ccc(C)c([N+](=O)[O-])c3)cc2)cc1` (stereo unspecified), the Potency is reported as inconclusive: 20.6 µM [cytotoxic, partial curve, poor fit]. With `CC(C)C(C)NC(=O)COc1ccc(S(=O)(=O)N2CCOCC2)cc1Cl` (stereo unspecified) the Potency was inconclusive: 29.1 µM [cytotoxic, single point]. With `COc1ccc(NC(=O)CN(C)C(=O)c2cn(-c3ccccc3)nc2-c2cccs2)cc1` the Potency was inconclusive: 20.6 µM [cytotoxic, single point]. With `C=CCn1c(SCC(=O)N(C(C)CC)C2CCS(=O)(=O)C2)nc2ccccc2c1=O` (stereo unspecified) the “activity change, negative = cytotoxicity” value was inactive: -7.47%. With `COc1ccc(/C=C2/NC(=O)CNC2=O)cc1` the Potency was inconclusive: 29.1 µM [rising, single point]. For `COc1cc(OC)c(C(=O)/C=C/c2ccc(OCc3ccccc3)c(OC)c2)c(OC)c1`, the Potency was inconclusive: 32.6 µM [cytotoxic, partial curve, poor fit]. With `CC(=O)Nc1nonc1-c1nc2ccccc2n1Cc1nnc(C)o1` the Potency was inconclusive: 20.6 µM [cytotoxic, single point]. In the case of `O=C(NCc1ccccc1Cl)[C@H]1CCCN1C(=O)[C@H]1CCCN1C(=O)c1cccs1`, the Potency is reported as inconclusive: 41.1 µM [rising, partial curve, poor fit]. In the case of `COC(=O)c1ccc(-c2noc(CN(C)Cc3ccncc3C)n2)cc1`, the “activity change, negative = cytotoxicity” value is reported as inactive: 3.31%. For `O=C1c2ccccc2C(=O)N1CC1CCCO1` (stereo unspecified), the “activity change, negative = cytotoxicity” value was inactive: -11.7%. For `O=C(N/N=C/c1ccccn1)c1[nH]c2ccc([N+](=O)[O-])cc2c1-c1ccccc1`, the Potency was inconclusive: 25.9 µM [cytotoxic, single point]. In the case of `Cc1ccc(S(=O)(=O)N(C)C[C@@H]2OCc3ccccc3-c3c(n(C)c4ccccc34)C(=O)N([C@H](C)CO)C[C@@H]2C)cc1`, the Potency is reported as inconclusive: 18.4 µM [cytotoxic, single point]. In the case of `Cc1cc(NC(=O)c2ccc(Cn3nc(C)c(Br)c3C)o2)no1`, the Potency is reported as inconclusive: 0.0366 µM [rising, full curve]. In the case of `Cc1cc(C)cc(N(C(=O)c2sc(C)nc2C)C(C(=O)NCc2ccco2)c2ccccc2)c1` (stereo unspecified), the Potency is reported as inconclusive: 14.6 µM [cytotoxic, partial curve, poor fit]. In the case of `CCOC(=O)C1CCCN(C(=O)Cn2sc3nc(C)cc(C)c3c2=O)C1` (stereo unspecified), the Potency is reported as inconclusive: 23.1 µM [cytotoxic, single point]. In the case of `Cc1cc(C)nc(-n2nc(C)c(Sc3ccc(F)cc3)c2N)n1`, the Potency is reported as inconclusive: 23.1 µM [cytotoxic, single point]. For `O=C(c1ccc2c(Cl)c3c(nc2c1)CCCC3)N1CCN(c2cccc(C(F)(F)F)c2)CC1`, the Potency was inconclusive: 23.1 µM [rising, single point]. For `COc1ccc(C=O)cc1COc1ccc(Cl)cc1[N+](=O)[O-]`, the Potency was inconclusive: 29.1 µM [cytotoxic, single point]. In the case of `CC(C)(C)C(=O)Nc1ccc(N=Nc2ccccc2)cc1`, the Potency is reported as inconclusive: 29.1 µM [rising, partial curve, poor fit]. For `CCN(CC)C(=O)CCc1nnc(Cc2cccc(C(F)(F)F)c2)o1`, the Potency was inconclusive: 29.1 µM [cytotoxic, single point]. In the case of `CCOc1ccc(CNC(=O)CCS(=O)(=O)c2cc3c4c(c2)CCN4C(=O)CC3)cc1OC`, the “activity change, negative = cytotoxicity” value is reported as inactive: 2.36%. With `COc1ccc(/C=N/NC(=O)c2[nH]nc3c2CCc2ccccc2-3)cc1OC` the “activity change, negative = cytotoxicity” value was inactive: -1.72%.
